Experimental data: PubChem BioAssay AID1671190 (National Center for Advancing Translational Sciences (NCATS), 2021)
Hit rate of the full screen: of about 580,000 compounds, about 6,100 (1.1%) were called active. Inconclusive means that the source gave no clear call. Such entries were picked first, then a sample of the others. Calls follow the shape of the dose curve; as a rule, active = well fitted inhibition curve with a large enough effect; inconclusive = small, poorly fitted or top-dose-only effect, or another doubt; inactive = no such curve, though single readings can be large or run the other way. Potencies of inconclusive entries are doubtful fits and often do not repeat.

By UniProt entry, the sequences of proteins in these tests, tags left out. Where a name states a change or a piece, a line headed by the entry shows the natural chain unless it says otherwise.
UniProt P18054: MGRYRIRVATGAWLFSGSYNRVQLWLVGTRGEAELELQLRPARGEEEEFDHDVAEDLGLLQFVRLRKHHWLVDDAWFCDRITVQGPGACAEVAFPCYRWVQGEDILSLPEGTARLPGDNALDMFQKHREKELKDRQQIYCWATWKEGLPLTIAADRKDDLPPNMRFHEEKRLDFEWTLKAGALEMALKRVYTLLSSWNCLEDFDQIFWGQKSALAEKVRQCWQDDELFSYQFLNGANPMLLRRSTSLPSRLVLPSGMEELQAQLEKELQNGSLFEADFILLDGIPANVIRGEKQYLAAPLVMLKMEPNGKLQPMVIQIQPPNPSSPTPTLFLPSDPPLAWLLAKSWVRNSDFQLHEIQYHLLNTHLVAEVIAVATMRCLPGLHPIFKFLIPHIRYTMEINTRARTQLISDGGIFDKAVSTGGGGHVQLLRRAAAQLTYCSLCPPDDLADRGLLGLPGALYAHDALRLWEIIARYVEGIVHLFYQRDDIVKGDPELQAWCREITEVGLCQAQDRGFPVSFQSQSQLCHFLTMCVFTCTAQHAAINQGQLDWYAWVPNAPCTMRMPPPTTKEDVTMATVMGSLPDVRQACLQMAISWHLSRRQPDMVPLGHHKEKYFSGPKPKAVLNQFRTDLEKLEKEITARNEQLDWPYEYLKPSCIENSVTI

biological target: Polyunsaturated fatty acid lipoxygenase ALOX12 (Homo sapiens) (UniProt P18054); assay: Primary qHTS assay for inhibitors of human arachidonate 12S-lipoxygenase (ALOX12): Round 2; conditions: purified 12hLO, xylenol orange hydroperoxide absorbance; activity change, negative = inhibition: at 108 µM (top of the series) unless noted
Summary of the method: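 Purified human 12hLO at 150 nM in 25 mM Hepes, 0.01% Triton X-100, pH 7.0, preincubated 15 min at room temperature with compound. Reaction started with 40 uM arachidonic acid, 30 min at room temperature. Hydroperoxide measured by Fe-xylenol orange, 573/405 nm absorbance ratio.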
% is scaled to controls: 0 for no effect and ±100 for the full control effect; potency is read from the fitted curve at half-maximal effect.

| Structure (SMILES) | Potency | activity change, negative = inhibition |
| --- | --- | --- |
| CC(C)(C)CC(=O)N1CC[C@@H](CC(=O)O)[C@@H](CCN2CCN(c3ccccc3)CC2)C1 | inconclusive: 22.4 µM [inhibitor, full curve, poor fit] | – |
| CCOc1ccc(NC(=O)/C(C#N)=C\c2ccc(N3CCCC3)c(C)c2)cc1 | inconclusive: 100 µM [inhibitor, partial curve, poor fit] | – |
| CC(=O)Nc1cc[n+](C(C)C(=O)c2ccc(Cl)cc2)cc1 (stereo unspecified) | – | inactive: 14.5% |
| COc1ccccc1C(=O)n1nc(-c2ccc(Cl)cc2)nc1N | inconclusive: 39.8 µM [inhibitor, partial curve] | – |
| Cc1c(-c2nsc(NC(=O)c3cccc(F)c3)n2)nnn1-c1ccccc1C(F)(F)F | – | inactive: -0.0253% |
| NC(=O)CSc1ccc(S(=O)(=O)N2CCOCC2)cn1 | inconclusive: 100 µM [inhibitor, single point] | – |
| Cc1ccsc1CN1CCCCC12Cc1ccccc1CNC2=O (stereo unspecified) | inconclusive: 89.1 µM [inhibitor, partial curve, poor fit] | – |
| O=C1CC(c2ccccc2)Sc2ccccc2N1 (stereo unspecified) | inconclusive: 1.58 µM [inhibitor, full curve, poor fit] | – |
| Cc1nnc(SCC(=O)Nc2cc(S(=O)(=O)N3CCCC3)ccc2Cl)n1C1CC1 | – | inactive: 199% |
| Clc1ccccc1C=NNc1ccccn1 | inconclusive: 100 µM [inhibitor, single point] | – |
| CC(C)CC(NC(N)=O)C(=O)N1CCN(S(=O)(=O)c2ccc(C(C)C)cc2)CC1 (stereo unspecified) | – | inactive: 24.1% |
| CSc1ccc(N2CCN(CCCNC(=O)Nc3ccccc3F)CC2)cc1 | – | inactive: -3.08% |
| CCOC(=O)c1c(S(=O)(=O)N2CCCCC2C)c(C)n(C)c1C (stereo unspecified) | – | inactive: 13% |
| O=C(O)CCCc1ccccn1 | inconclusive: 63.1 µM [inhibitor, partial curve, poor fit] | – |
| CC/C(C)=N/NC(=O)c1[nH]c2ccc(C)cc2c1-c1ccccc1 | – | inactive: 6.57% |
| CCOc1ccc(NC(=O)CCc2c(C)nc3c4c(C)cc(C)nc4nn3c2C)cc1 | – | inactive: 0.455% |
| CCOC(=O)CSc1nnc(-c2cccnc2)o1 | – | inactive: 1.05% |
| CCOC(=O)c1cn(CC)nc1S(=O)(=O)N1CCOCC1 | inconclusive: 22.4 µM [inhibitor, partial curve, poor fit] | – |
| Cc1cc(C)n2nc(N)nc2n1 | – | inactive: 10.3% |
| COc1cc(/C=N/n2c(-c3cc(C)[nH]n3)n[nH]c2=S)cc(OC)c1OC | inconclusive: 3.98 µM [inhibitor, full curve, poor fit] | – |
| CN(Cc1ccccc1)c1ccc2cc(S(=O)(=O)N3CCCCC3)ccc2n1 | inconclusive: 44.7 µM [inhibitor, partial curve, poor fit] | – |

Pulled one by one from the entries so far:

| Structure (SMILES) | Potency | activity change, negative = inhibition |
| --- | --- | --- |
| CC(=O)Nc1cc[n+](C(C)C(=O)c2ccc(Cl)cc2)cc1 (stereo unspecified) | – | inactive: 14.5% |
| CCOC(=O)c1cn(CC)nc1S(=O)(=O)N1CCOCC1 | inconclusive: 22.4 µM [inhibitor, partial curve, poor fit] | – |
